Source: PubChem BioAssay AID504834 (National Center for Advancing Translational Sciences (NCATS), 2011)
Among all 320,000 compounds or so, about 22,000 (6.9%) were called active. Inconclusive results, whose numbers are uncertain, are shown with a selection of clear calls. The call rests on the fitted dose curve; in most records, active means well fitted inhibition curve with a large enough effect; inconclusive means small, poorly fitted or top-dose-only effect, or another doubt; inactive means no such curve, though single readings can be large or run the other way. Potencies of inconclusive entries are doubtful fits and often do not repeat.

Test: Primary qHTS for delayed death inhibitors of the malarial parasite plastid, 96 hour incubation
Conditions: P. falciparum luciferase reporter growth; series mostly up to 28.7 µM
Outline: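 Delayed-death screen, second-generation endpoint: infected erythrocytes, 2% hematocrit, 0.05% parasitemia final; 96 hours at 37 C, 5% CO2; luciferase detection reagent; luminescence decrease equals reduced growth.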
Potency means the concentration at half of the fitted maximal effect.

| Structure (SMILES) | Potency |
| --- | --- |
| Cc1oc2c(C)c3oc(=O)c(CCC(=O)NCCCN4CCCC4=O)c(C)c3cc2c1C | inconclusive: 18.5 µM [inhibitor, single point] |
| O=C(CSc1ccccc1)Nc1cc(S(=O)(=O)N2CCOCC2)ccc1N1CCOCC1 | inconclusive: 5.86 µM [inhibitor, partial curve] |
| O=C(c1ccc(F)cc1)c1cc2ccccc2o1 | inactive |
| COc1ccc(NC(=O)/C=C/c2ccc3c(c2)OCO3)cc1 | inactive |
| Cn1c(C(C#N)C2=C(Cl)C(=O)N(c3ccccc3)C2=O)nc2ccccc21 (stereo not given) | inactive |
| Cc1ccc(NC(=O)CSc2nnc(CNC(=O)c3ccccc3F)o2)cc1Cl | inconclusive: 18.5 µM [inhibitor, single point] |
| O=C(Nc1cccs1)Nc1c(F)c(F)cc(F)c1F | active: 4.65 µM |
| Cn1c(=O)c2c(nc(N/N=C/c3ccc(OC(=O)c4ccco4)cc3)n2Cc2ccc(F)cc2)n(C)c1=O | inconclusive: 18.5 µM [inhibitor, single point] |
| COc1ccc(CCNC(=O)CSc2nc3[nH]ncc3c(=O)n2-c2cccc(C(F)(F)F)c2)cc1OC | inconclusive: 0.208 µM [inhibitor, partial curve, poor fit] |
| Clc1ccc(OCCN2CCCCC2)cc1Cl | inconclusive: 18.5 µM [inhibitor, single point] |
| Cc1ccc(-n2c(SCC(=O)Nc3ncc(Cl)cc3Cl)nc3ccccc32)cc1 | inconclusive: 2.94 µM [inhibitor, partial curve, poor fit] |
| Cc1ccccc1NC(=S)N1CCN(c2ccccc2Cl)CC1 | inactive |
| O=C(N[C@@H]1C[C@H]2CC[C@@H]1C2)c1ccco1 | inconclusive: 8.28 µM [inhibitor, single point] |
| Cc1ccc2sc(N(CCN(C)C)C(=O)c3ccc(S(=O)(=O)N4CC(C)OC(C)C4)cc3)nc2c1C (stereo not given) | inconclusive: 0.0828 µM [inhibitor, full curve, poor fit] |
| COc1ccc(-c2csc3ncnc(N4CCN(S(=O)(=O)c5ccc(C)cc5)CC4)c23)cc1 | inconclusive: 4.65 µM [inhibitor, partial curve] |
| O=C(Nc1nc2ccc(Cl)cc2s1)c1ccc(N2CCCCC2)c([N+](=O)[O-])c1 | inconclusive: 0.185 µM [inhibitor, full curve, poor fit] |
| CCOc1ccc(C(C)NC(=O)c2ccc3c(c2)NC(=O)C(C)S3)cc1OCC (stereo not given) | active: 1.85 µM |
| OC(CN1CCc2ccccc2C1)c1ccccc1 (stereo not given) | inconclusive: 18.5 µM [inhibitor, single point] |
| O=c1[nH]c2ccc(S(=O)(=O)N3CCN(c4ccccc4)CC3)cc2[nH]c1=O | inconclusive: 0.147 µM [inhibitor, full curve, poor fit] |
| CN(C)/C(=N\S(=O)(=O)c1ccccc1)c1ccc(Cl)cc1 | inactive |
| Cc1nc(NCC2CCCO2)c2nnn(Cc3ccccc3Cl)c2n1 (stereo not given) | inconclusive: 0.117 µM [inhibitor, full curve, poor fit] |
| Cc1cc(C)nc(NS(=O)(=O)c2ccc(NC(=O)c3ccccc3C)cc2)n1 | inconclusive: 20.8 µM [inhibitor, partial curve, poor fit] |
| O=C(COc1ccc(F)cc1Br)NCC1(N2CCOCC2)CCCCC1 | inconclusive: 10.4 µM [inhibitor, single point] |
| CC(NC(=S)Nc1ccc(S(=O)(=O)N2CCOCC2)cc1)C1CC2CCC1C2 (stereo not given) | inconclusive: 18.5 µM [inhibitor, single point] |

Two records picked at random from the list so far, as already listed:

| Structure (SMILES) | Potency |
| --- | --- |
| Cc1ccccc1NC(=S)N1CCN(c2ccccc2Cl)CC1 | inactive |
| Cc1nc(NCC2CCCO2)c2nnn(Cc3ccccc3Cl)c2n1 (stereo not given) | inconclusive: 0.117 µM [inhibitor, full curve, poor fit] |

More structures follow:

| Structure (SMILES) | Potency |
| --- | --- |
| O=C(Nc1ccccc1)N1CCC(c2nc(-c3ccc(S(=O)(=O)N4CCOCC4)cc3)no2)CC1 | active: 8.28 µM |
| CNS(=O)(=O)c1cccc(C(=O)OCc2cc(=O)oc3c(C)c(O)ccc23)c1 | inconclusive: 8.28 µM [inhibitor, partial curve, poor fit] |
| O=C1/C(=C/c2cccc([N+](=O)[O-])c2)CCc2ccccc21 | inconclusive: 5.22 µM [inhibitor, partial curve, poor fit] |
| O=C(NCCN1CCCC1)C1CCC(=O)N(CCCN2CCOCC2)C1 (stereo not given) | inconclusive: 18.5 µM [inhibitor, single point] |
| CCCCN(CC)CCCNC(=O)c1cn(-c2ccc(OC)cc2)c(=O)c2ccccc12 | active: 7.38 µM |
| COc1ccc(CCN2CC(C(=O)NC3CCCCC3)CC2=O)cc1OC (stereo not given) | inconclusive: 2.94 µM [inhibitor, partial curve, poor fit] |
| CCS(=O)(=O)N1CCC(C(=O)Nc2cc(Cl)ccc2O)CC1 | inactive |
| Cc1ccc(OCC(=O)NNC(=O)C2CSC3(C)CCC(=O)N23)cc1C (stereo not given) | inactive |
| O=[N+]([O-])c1ccccc1CN1CCN(Cc2c[nH]c3ccccc23)CC1 | inconclusive: 18.5 µM [inhibitor, single point] |
| c1cncc(-c2ccc3ncnc(NCc4ccc5c(c4)OCO5)c3c2)c1 | inconclusive: 10.4 µM [inhibitor, single point] |
| Cc1ccccc1NC(=O)N1C2CCCC1CC(NC(=O)C(C)(C)C)C2 (stereo not given) | active: 11.7 µM |
| COc1cc(C(=O)N2CCN(c3cccc(C)c3C)CC2)ccc1OCC(=O)N1CCOCC1 | inconclusive: 18.5 µM [inhibitor, single point] |
| CNC[C@H](CC1CCCCC1)NC[C@H](Cc1ccccc1)NCCC12CC3CC(CC(C3)C1)C2 | active: 2.08 µM |
| COc1ccc(NC(=O)C2CCN(C(=O)[C@@H]3Cc4ccccc4CN3C(=O)OC(C)(C)C)CC2)cc1 | inconclusive: 7.38 µM [inhibitor, partial curve] |
| COc1ccccc1CCC(=O)OCc1csc(CC(=O)Nc2ccccc2C)n1 | inconclusive: 4.15 µM [inhibitor, single point] |
| CCN1C(=O)CC(C(=O)NCCc2ccc(S(N)(=O)=O)cc2)SC1=Nc1ccc(OC)cc1 (stereo not given) | inconclusive: 18.5 µM [inhibitor, single point] |
| COc1ccccc1CNS(=O)(=O)c1c(C(=O)N2CCCCC2)c(C)n(C)c1C | inactive |
| OC(C#CCN1CCCC1)(c1ccccc1)c1cccnc1 (stereo not given) | inconclusive: 11.7 µM [inhibitor, single point] |
| CCOc1cccc(-c2c(C(=O)N/N=C/c3ccsc3)nnn2-c2nonc2N)c1 | inconclusive: 13.1 µM [inhibitor, single point] |
| COc1cc(NC(=O)C2CCCCC2)c2ncccc2c1 | inconclusive: 0.928 µM [inhibitor, partial curve, poor fit] |
| Cc1cc(/C=C(\C#N)C(=O)Nc2ccccc2)c(C)n1-c1cccnc1 | inconclusive: 13.1 µM [inhibitor, single point] |
| CC(C)[C@@H](C(=O)N1CCN(Cc2ccc3c(c2)OCO3)CC1)n1nnc2ccccc2c1=O | active: 13.1 µM |
| O=C(N/N=C/c1ccc(N2CCOCC2)cc1)c1ccccc1OCCOc1ccccc1 | inconclusive: 1.04 µM [inhibitor, partial curve, poor fit] |
| CC(=O)N1c2c(cc(Br)cc2S(=O)(=O)N2CCCCC2)CC1C (stereo not given) | inactive |

Of the compounds above, these have a thiophene ring, fused or not:

| Structure (SMILES) | Potency |
| --- | --- |
| O=C(Nc1cccs1)Nc1c(F)c(F)cc(F)c1F | active: 4.65 µM |
| COc1ccc(-c2csc3ncnc(N4CCN(S(=O)(=O)c5ccc(C)cc5)CC4)c23)cc1 | inconclusive: 4.65 µM [inhibitor, partial curve] |
| CCOc1cccc(-c2c(C(=O)N/N=C/c3ccsc3)nnn2-c2nonc2N)c1 | inconclusive: 13.1 µM [inhibitor, single point] |

The list goes on.

| Structure (SMILES) | Potency |
| --- | --- |
| CCOc1ccc(C(OC(=O)c2ccco2)C(=O)NCc2ccc(C)cc2)cc1 (stereo not given) | inconclusive: 18.5 µM [inhibitor, single point] |
| O=C1CC(Cc2ccccc2)C(=O)N1Cc1ccco1 (stereo not given) | active: 11.7 µM |
| COc1ccccc1NC(=O)CSc1nccc(-c2ccco2)n1 | inconclusive: 10.4 µM [inhibitor, single point] |
| O=S(=O)(N/N=C\c1ccc2c(c1)OCO2)c1ccc(F)cc1 | inactive |
| CCn1cc(Br)c(C(=O)Nc2cccc(SC)c2)n1 | inactive |
| CCOc1ccc(CCNC(=O)C2CCN(c3nnc(-n4cccc4)s3)CC2)cc1 | inconclusive: 18.5 µM [inhibitor, single point] |
| CC(C)OC(=O)/C(=C\C=C\c1ccccc1)NC(=O)c1ccccc1 | inactive |
| COc1nc2ccccc2nc1N1CCN(C)CC1 | inactive |
| COc1ccc(NC(=O)CC2SC(N3CCOCC3)=NC2=O)c(OC)c1 (stereo not given) | inconclusive: 13.1 µM [inhibitor, single point] |
| COc1ccccc1C1CC(c2ccc(Cl)cc2Cl)Nc2nc(N)nn21 (stereo not given) | inconclusive: 18.5 µM [inhibitor, single point] |
| Cn1cnnc1SCC(=O)Nc1ccc(Cl)cc1 | inconclusive: 11.7 µM [inhibitor, single point] |
| Cc1nc(-c2nc(-c3c(C(=O)NN)noc3C)cs2)cs1 | inactive |
| COc1ccccc1NC(=O)C(C)OC(=O)C1CCN(S(=O)(=O)c2ccc(C)c(C)c2)CC1 (stereo not given) | inactive |
| CCOC(=O)Cn1cnc2c(nnn2-c2ccc(C)cc2)c1=O | inactive |
| CCc1ccc2c(c1)C(c1ccc([N+](=O)[O-])cc1)=NNC(c1ccc(Br)cc1)=N2 | inactive |
| CCCCCCCCCCCCCCNCCO | inconclusive: 19 µM [inhibitor, partial curve, poor fit] |
| COc1ccc(S(=O)(=O)N(CC(=O)NCCSc2ccccn2)c2ccccc2)cc1 | inconclusive: 6.57 µM [inhibitor, partial curve] |
| CCOC(=O)C1CCN(C(=O)C2CCN(S(=O)(=O)N3CCCC3)CC2)CC1 | active: 6.57 µM |
| O=c1[nH]c(C2CCN(S(=O)(=O)c3ccccc3C(F)(F)F)CC2)nc2c1nnn2Cc1ccccc1 | active: 2.62 µM |
| Cc1cccc(C)c1NC(=S)N1CCCCCC1 | inactive |
| O=C(Nc1nc2c(s1)CCCC2)c1cccnc1 | inactive |
| Cc1c(C(=O)NCCS(=O)(=O)N2CCN(c3ccccc3F)CC2)cccc1[N+](=O)[O-] | inactive |
